# Test results as given in PubChem BioAssay AID2685 (National Center for Advancing Translational Sciences (NCATS), 2010).
# The list shows a part of the results. Shown are side measurements of this screen, not its main read-out; they come without a call. Compounds called inactive in the main read-out are mostly missing here. Potencies come from curve fits of mixed quality, noted in brackets.
# Assay: qHTS Assay for Lipid Storage Modulators in Drosophila S3 Cells;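 for cell number change: cells counted by Cell Tracker Red CMTPX staining in the red channel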
# Settings: BODIPY lipid droplet fluorescence, 18-24 h; for cell number change: measured here: cell count max response, cells fed with added oleic acid
# Method in brief: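 Laser-scanning cytometry quantifies lipid droplet accumulation (500–530 nm total intensity; droplet/cell object ratio) in oleic acid-fed (400 uM added) Drosophila S3 cells treated with a concentration series. 20 uM Triacsin C defined 100% inhibition.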
# [1] = measured here: cell number channel AC50, cells fed with added oleic acid
# [2] = measured here: lipid fluorescence (Fed channel) AC50, cells fed with added oleic acid
Structure (SMILES),cell number change [%],AC50 [1],AC50 [2]
COC(=O)c1sccc1NC(=O)c1cc(-c2ccc(C)cc2)nc2ccccc12,44.4,"6.51 µM [rising, full curve, poor fit]",–
O=C1c2c(O)cc(O)cc2O[C@@]12c1c(cc(O)c3c1O[C@H](c1ccc(O)cc1)[C@@H](O)C3)O[C@@H]2c1ccc(O)cc1,-31.2,"9.2 µM [falling, full curve, poor fit]",–
Cc1ccc(C(=O)NCc2cccnc2)cc1S(=O)(=O)Nc1ccccc1,–,–,"0.00461 µM [rising, full curve, poor fit]"
CCOC(=O)C1CCN(C(=O)CN2C(=O)COc3ccc(C(C)(C)C)cc32)CC1,-28.1,–,–
CCC(C(=O)NC1CCCC1)N(Cc1ccc2c(c1)OCO2)C(=O)c1snc(C(N)=O)c1N (stereo not given),-1.46,–,"1.64 µM [rising, partial curve, poor fit]"
CC(NC(=O)c1cc2cc(Cl)ccc2oc1=N)c1ccccc1 (stereo not given),-34.2,–,"29.1 µM [falling, single point]"
CCC(C)C(NC(N)=O)C(=O)NC1CCC(C)CC1 (stereo not given),-18.4,"0.0291 µM [falling, full curve, poor fit]",–
CC(C)(C)NCC(O)COc1c(F)cc(Br)cc1F (stereo not given),–,–,"23.1 µM [falling, partial curve]"
Cc1cc(C)c(OCCCCN2CCC(C)CC2)c(Br)c1,-41.8,"16.4 µM [falling, single point]",–
O=C(O)c1c[nH]ccc1=O,2.58,–,"4.11 µM [falling, single point]"
Cc1nn(-c2ccccc2)c(Cl)c1C(=O)OC(C)C(=O)Nc1ccc2c(c1)OCO2 (stereo not given),13.7,–,"0.259 µM [rising, single point]"
O=C(C/C=N\OCc1ccc([N+](=O)[O-])cc1)Nc1ccccc1,-13.5,"0.092 µM [falling, full curve, poor fit]","0.116 µM [falling, full curve, poor fit]"
O=C(NCc1ccc(F)cc1)c1cccc2c1C(=O)c1ccc(Cl)cc1S2(=O)=O,14.3,–,"0.231 µM [rising, single point]"
Cc1ccccc1CN(C)CC(=O)NC(C)CCc1ccccc1 (stereo not given),-9.05,–,–
CCN(CC)S(=O)(=O)c1cccc(-c2nn(-c3ccccc3)cc2/C=C(\C#N)C(=O)NCc2ccco2)c1,2.56,–,"0.116 µM [rising, full curve, poor fit]"
N#Cc1nc(Cc2cccc3ccccc23)oc1NCCCn1ccnc1,–,"0.103 µM [rising, full curve, poor fit]","0.184 µM [rising, full curve, poor fit]"
O=C(/C=C/c1ccco1)Nc1ccc(Cl)c(S(=O)(=O)N2CCOCC2)c1,-25.3,–,"0.366 µM [falling, full curve]"
CC(C)(C)OC(=O)N1CCC[C@H]1c1nnc(SC/C=C/c2ccccc2)o1,-18.9,–,"29.1 µM [falling, single point]"

Structure (SMILES),cell number change [%],AC50 [1],AC50 [2]
COCCCNC(=O)CS(=O)(=O)Cc1nc(-c2ccccc2C)oc1C,–,–,"6.51 µM [falling, single point]"
N#Cc1cccc(NC(=O)c2cncn2-c2ccccc2)c1,–,"6.51 µM [rising, single point]",–
Cc1cccc(C(=O)N[C@H](C(=O)OCC(=O)NC(=O)c2cccn2C)C(C)C)c1,12.1,–,"10.3 µM [rising, partial curve, poor fit]"
Cn1c(=O)[nH]c(=O)c2c1nc(N1CCCC1)n2CCCSc1nc2ccccc2o1,-6.25,–,–
CN(C(=O)CSc1nc(C2CC2)nc2ccccc12)c1nc(-c2ccccc2)cs1,15.5,–,"29.1 µM [rising, partial curve, poor fit]"
O=C(c1ccco1)N1CCN(C(c2ccc(F)cc2)c2nnnn2Cc2cccs2)CC1 (stereo not given),12.6,–,"0.731 µM [rising, full curve, poor fit]"
CCOc1cc(/C=N\Nc2nc(-c3ccc(C)cc3)c(NC(C)=O)s2)ccc1O,28.3,"0.00461 µM [rising, full curve, poor fit]","7.31 µM [rising, partial curve]"
Cc1ccc(C(C#N)N2CCOCC2)cc1 (stereo not given),36.8,"25.9 µM [rising, single point]","29.1 µM [rising, single point]"
CCOC(=O)c1c(CC(C)C)csc1/N=C/C1C(=O)CC(C)(C)CC1=O,18.5,–,"10.3 µM [rising, partial curve]"
N#CC(C#N)=C1C=CC=CN1/C(=C\c1ccco1)C(=O)c1ccc(-c2ccccc2)cc1,-60.8,"7.31 µM [falling, partial curve]","4.11 µM [falling, partial curve]"
O=C(O)c1ccc(S(=O)(=O)/N=C2\C=C(Nc3ccccc3F)C(=O)c3ccccc32)cc1,–,–,"8.2 µM [falling, partial curve]"
CCOC(=O)c1sc(NC(=O)c2ccccc2F)c(C(N)=O)c1C,114,"1.84 µM [rising, full curve]","1.64 µM [rising, full curve]"
O=c1oc2ccccc2c(Nc2cccc3cccnc23)c1[N+](=O)[O-],-27,–,–
COc1cc(OC)cc(C(=O)NC2CCN(C(=O)N3c4ccccc4Sc4ccccc43)CC2)c1,-26,–,"29.1 µM [falling, single point]"
CCN(CC)c1ccc(N=Cc2c(C)[nH]c3ccccc23)cc1,-45.4,"29.1 µM [falling, single point]","18.4 µM [falling, single point]"
COc1ccccc1COCC(O)CN(Cc1ccco1)Cc1ccccc1O (stereo not given),3.4,–,"18.4 µM [rising, single point]"
CC(C)Oc1ccc(S(=O)(=O)N2CCCCC2)cc1NC(=O)C1CCC1,36.2,"1.84 µM [rising, partial curve]","2.59 µM [rising, full curve]"
O=C(c1ccc2c(c1)OCO2)N1CCN(S(=O)(=O)c2ccc(Br)cc2Cl)CC1,-7.63,–,"3.66 µM [rising, full curve]"

# Looked up by compound from the entries so far (two):
Structure (SMILES),cell number change [%],AC50 [1],AC50 [2]
CCC(C)C(NC(N)=O)C(=O)NC1CCC(C)CC1 (stereo not given),-18.4,"0.0291 µM [falling, full curve, poor fit]",–
CC(C)(C)NCC(O)COc1c(F)cc(Br)cc1F (stereo not given),–,–,"23.1 µM [falling, partial curve]"
